Experimental data published in doi:10.1101/2024.03.15.585069.
Results are given in words; binding and its absence hold for the method and conditions named. In cells and extracts the contact can be indirect. Some results given as binding are weak or reduced against the parent protein; the word gives no strength.

Legend:
Test in all cases: split reporter
[1] = target: T1, nEYFP-CP2 (Arabidopsis thaliana) (UniProt P0DO23)
T1 sequence: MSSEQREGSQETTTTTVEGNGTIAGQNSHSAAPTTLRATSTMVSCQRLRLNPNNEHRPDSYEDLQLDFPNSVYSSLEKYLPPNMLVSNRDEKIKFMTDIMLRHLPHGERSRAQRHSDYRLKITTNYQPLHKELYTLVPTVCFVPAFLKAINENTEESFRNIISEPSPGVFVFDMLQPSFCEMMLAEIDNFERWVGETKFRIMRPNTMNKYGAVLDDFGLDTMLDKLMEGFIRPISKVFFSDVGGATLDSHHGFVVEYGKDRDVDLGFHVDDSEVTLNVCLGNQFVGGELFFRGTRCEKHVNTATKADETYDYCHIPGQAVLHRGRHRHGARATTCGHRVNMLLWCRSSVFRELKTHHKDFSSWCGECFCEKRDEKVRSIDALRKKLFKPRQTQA

nEYFP-UBP13 = target: T2, nEYFP-UBP13 (UniProt Q84WU2)
T2 sequence: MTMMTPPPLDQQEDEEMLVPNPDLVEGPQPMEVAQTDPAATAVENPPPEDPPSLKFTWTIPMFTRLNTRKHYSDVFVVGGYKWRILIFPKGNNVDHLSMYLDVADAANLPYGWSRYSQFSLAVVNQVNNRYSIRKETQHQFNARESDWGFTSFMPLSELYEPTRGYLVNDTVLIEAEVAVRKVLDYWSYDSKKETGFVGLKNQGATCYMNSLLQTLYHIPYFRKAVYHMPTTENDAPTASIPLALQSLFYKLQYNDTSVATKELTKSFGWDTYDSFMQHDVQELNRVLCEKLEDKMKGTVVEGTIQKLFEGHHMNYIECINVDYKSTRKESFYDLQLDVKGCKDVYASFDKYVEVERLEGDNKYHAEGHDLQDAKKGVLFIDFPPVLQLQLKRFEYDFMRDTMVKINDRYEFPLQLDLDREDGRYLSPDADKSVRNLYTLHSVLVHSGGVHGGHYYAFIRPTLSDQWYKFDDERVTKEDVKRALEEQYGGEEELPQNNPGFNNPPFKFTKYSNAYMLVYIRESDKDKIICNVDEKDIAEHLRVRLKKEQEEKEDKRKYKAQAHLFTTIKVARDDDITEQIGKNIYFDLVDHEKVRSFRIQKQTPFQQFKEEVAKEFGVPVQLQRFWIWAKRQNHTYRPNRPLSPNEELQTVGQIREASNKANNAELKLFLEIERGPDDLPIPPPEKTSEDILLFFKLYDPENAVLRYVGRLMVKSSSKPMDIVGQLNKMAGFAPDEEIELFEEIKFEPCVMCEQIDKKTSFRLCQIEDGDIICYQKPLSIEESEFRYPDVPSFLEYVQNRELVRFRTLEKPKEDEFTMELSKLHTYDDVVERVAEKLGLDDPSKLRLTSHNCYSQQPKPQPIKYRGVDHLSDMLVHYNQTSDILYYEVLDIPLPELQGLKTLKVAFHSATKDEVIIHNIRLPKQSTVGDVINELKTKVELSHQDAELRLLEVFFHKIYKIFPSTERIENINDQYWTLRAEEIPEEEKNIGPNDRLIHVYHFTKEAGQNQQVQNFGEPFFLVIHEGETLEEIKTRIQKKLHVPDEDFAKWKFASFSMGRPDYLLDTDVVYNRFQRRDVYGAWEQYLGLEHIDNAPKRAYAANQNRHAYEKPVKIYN

nEYFP-UBP12 = target: T3, nEYFP-UBP12 (UniProt Q9FPT1)
T3 sequence: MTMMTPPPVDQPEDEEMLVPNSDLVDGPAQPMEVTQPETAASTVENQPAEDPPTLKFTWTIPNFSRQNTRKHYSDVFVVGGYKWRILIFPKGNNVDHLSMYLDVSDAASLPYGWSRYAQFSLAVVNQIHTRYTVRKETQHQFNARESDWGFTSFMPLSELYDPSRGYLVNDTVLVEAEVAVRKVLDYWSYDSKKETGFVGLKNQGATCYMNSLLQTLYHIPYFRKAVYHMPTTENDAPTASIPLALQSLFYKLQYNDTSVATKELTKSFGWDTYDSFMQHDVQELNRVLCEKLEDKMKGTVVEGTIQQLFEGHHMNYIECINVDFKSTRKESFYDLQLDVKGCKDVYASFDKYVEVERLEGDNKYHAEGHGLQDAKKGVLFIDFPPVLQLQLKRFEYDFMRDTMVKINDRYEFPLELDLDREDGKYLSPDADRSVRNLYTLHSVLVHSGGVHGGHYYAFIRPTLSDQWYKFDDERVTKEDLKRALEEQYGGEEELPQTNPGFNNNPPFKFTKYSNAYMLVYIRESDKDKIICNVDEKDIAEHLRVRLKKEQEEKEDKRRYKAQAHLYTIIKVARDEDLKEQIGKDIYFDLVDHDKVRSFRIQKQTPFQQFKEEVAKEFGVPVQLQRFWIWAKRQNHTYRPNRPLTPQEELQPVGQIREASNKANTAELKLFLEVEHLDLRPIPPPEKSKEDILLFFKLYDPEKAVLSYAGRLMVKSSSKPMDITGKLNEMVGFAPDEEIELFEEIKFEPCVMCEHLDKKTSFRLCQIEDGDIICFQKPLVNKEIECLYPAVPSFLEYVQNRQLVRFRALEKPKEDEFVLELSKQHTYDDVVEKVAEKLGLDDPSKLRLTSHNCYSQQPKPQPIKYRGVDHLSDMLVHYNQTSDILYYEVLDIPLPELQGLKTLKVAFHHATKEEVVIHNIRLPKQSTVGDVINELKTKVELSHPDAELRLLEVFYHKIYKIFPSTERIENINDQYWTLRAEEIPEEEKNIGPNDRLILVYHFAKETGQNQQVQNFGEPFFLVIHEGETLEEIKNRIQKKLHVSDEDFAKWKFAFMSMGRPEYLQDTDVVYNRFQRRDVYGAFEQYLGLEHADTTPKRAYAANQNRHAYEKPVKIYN

Measured: binding

B1: cEYFP-LHP1 (protein, UniProt Q946J8 1-445)
chain: MKGASGAVKKKPQVLNEAGEAETAVETVGESRKISGDGGFGSDDGGGGGGGGSGESILREIGDDRPTEDGDEEEEEDEDEDDGGDEEDEEGEGEGGQEERPKLDEGFYEIEAIRRKRVRKGKVQYLIKWRGWPETANTWEPLENLQSIADVIDAFEGSLKPGKPGRKRKRKYAGPHSQMKKKQRLTSTSHDATEKSDSSTSLNNSSLPDIPDPLDLSGSSLLNRDVEAKNAYVSNQVEANSGSVGMARQVRLIDNEKEYDPTLNELRGPVNNSNGAGCSQGGGIGSEGDNVRPNGLLKVYPKELDKNSRFIGAKRRKSGSVKRFKQDGSTSNNHTAPTDQNLTPDLTTLDSFGRIARMGNEYPGVMENCNLSQKTKIEELDITKILKPMSFTASVSDNVQEVLVTFLALRSDGKEALVDNRFLKAHNPHLLIEFYEQHLKYNRTP
binds: all assays above
